Source: US9815798B2 (priority 2014, dated 2017)
Some of these results come from one statement about several compounds together.

test system: Phakopsora pachyrhizi; assay: Protective control of soy bean rust on soy beans caused by Phakopsora pachyrhizi (Phakpa P2), green house; format: in vivo; conditions: soy bean seedlings sprayed with 16 ppm, inoculated after 2 days, assessed after fourteen days; untreated plants 80% infected

| Structure (SMILES) | infection (% diseased leaf area) [%] |
| --- | --- |
| CC(C)(C)C=Cc1ccc(C(C)(O)Cn2cncn2)c(Cl)c1 (centres unmarked) [Compound I-13] | ≤ 15 |
| OC(Cn1cncn1)(c1ccc(C=CC2CC2)cc1C(F)(F)F)C1CC1 (centres unmarked) [Compound I-5] | ≤ 15 |
| OC(Cn1cncn1)(c1ccc(C=CC(F)(F)F)cc1Cl)C1CC1 (centres unmarked) [Compound I-47] | ≤ 15 |
| C/C=C/c1ccc(C(O)(Cn2cncn2)C2CC2)c(Cl)c1 (centres unmarked) [Compound I-17] | ≤ 15 |

test system: Septoria tritici; assay: Activity against leaf blotch on wheat caused by Septoria tritici (Septtr), microtiter plate; format: cell-based; conditions: 31 ppm; measured at 405 nm 7 days after inoculation; active compound-free control = 100%

| Structure (SMILES) | growth (relative growth in % of the pathogen) [%] |
| --- | --- |
| CC(C)(C)C=Cc1ccc(C(C)(O)Cn2cncn2)c(Cl)c1 (centres unmarked) [Compound I-13] | ≤ 20 |
| OC(Cn1cncn1)(c1ccc(C=CC2CC2)cc1C(F)(F)F)C1CC1 (centres unmarked) [Compound I-5] | ≤ 20 |
| OC(Cn1cncn1)(c1ccc(C=CC(F)(F)F)cc1Cl)C1CC1 (centres unmarked) [Compound I-47] | ≤ 20 |
| C/C=C/c1ccc(C(O)(Cn2cncn2)C2CC2)c(Cl)c1 (centres unmarked) [Compound I-17] | ≤ 20 |

test system: Pyricularia oryzae; assay: not given; format: cell-based; conditions: 31 ppm; measured at 405 nm 7 days after inoculation; active compound-free control = 100%

| Structure (SMILES) | growth (relative growth in % of the pathogen) [%] |
| --- | --- |
| CC(C)(C)C=Cc1ccc(C(C)(O)Cn2cncn2)c(Cl)c1 (centres unmarked) [Compound I-13] | ≤ 19 |
| OC(Cn1cncn1)(c1ccc(C=CC2CC2)cc1C(F)(F)F)C1CC1 (centres unmarked) [Compound I-5] | ≤ 19 |
| OC(Cn1cncn1)(c1ccc(C=CC(F)(F)F)cc1Cl)C1CC1 (centres unmarked) [Compound I-47] | ≤ 19 |
| C/C=C/c1ccc(C(O)(Cn2cncn2)C2CC2)c(Cl)c1 (centres unmarked) [Compound I-17] | ≤ 19 |

test system: Alternaria solani; assay: Preventative fungicidal control of early blight on tomatoes (Alternaria solani) (Alteso P1), green house; format: in vivo; conditions: tomato plants sprayed with 125 ppm, inoculated next day, assessed after 5 days; untreated plants 80% infected

| Structure (SMILES) | infection (% diseased leaf area) [%] |
| --- | --- |
| CC(C)(C)C=Cc1ccc(C(C)(O)Cn2cncn2)c(Cl)c1 (centres unmarked) [Compound I-13] | ≤ 16 |
| OC(Cn1cncn1)(c1ccc(C=CC2CC2)cc1C(F)(F)F)C1CC1 (centres unmarked) [Compound I-5] | ≤ 16 |
| OC(Cn1cncn1)(c1ccc(C=CC(F)(F)F)cc1Cl)C1CC1 (centres unmarked) [Compound I-47] | ≤ 16 |
| C/C=C/c1ccc(C(O)(Cn2cncn2)C2CC2)c(Cl)c1 (centres unmarked) [Compound I-17] | ≤ 16 |

test system: Botrytis cinerea; assay: Activity against the grey mold Botrytis cinerea in the microtiterplate test (Botrci); format: cell-based; conditions: 31 ppm; measured at 405 nm 7 days after inoculation; active compound-free control = 100%

| Structure (SMILES) | growth (relative growth in % of the pathogen) [%] |
| --- | --- |
| CC(C)(C)C=Cc1ccc(C(C)(O)Cn2cncn2)c(Cl)c1 (centres unmarked) [Compound I-13] | ≤ 12 |
| OC(Cn1cncn1)(c1ccc(C=CC2CC2)cc1C(F)(F)F)C1CC1 (centres unmarked) [Compound I-5] | ≤ 12 |
| OC(Cn1cncn1)(c1ccc(C=CC(F)(F)F)cc1Cl)C1CC1 (centres unmarked) [Compound I-47] | ≤ 12 |
| C/C=C/c1ccc(C(O)(Cn2cncn2)C2CC2)c(Cl)c1 (centres unmarked) [Compound I-17] | ≤ 12 |
